The supplement of paper PMC10849652
The other results are listed elsewhere or left out.

Sequences of proteins named here, by UniProt entry; tags and fusion partners are left off. A change or cut given only in a name is not applied to a line headed by its entry.
UniProt Q9H4H8: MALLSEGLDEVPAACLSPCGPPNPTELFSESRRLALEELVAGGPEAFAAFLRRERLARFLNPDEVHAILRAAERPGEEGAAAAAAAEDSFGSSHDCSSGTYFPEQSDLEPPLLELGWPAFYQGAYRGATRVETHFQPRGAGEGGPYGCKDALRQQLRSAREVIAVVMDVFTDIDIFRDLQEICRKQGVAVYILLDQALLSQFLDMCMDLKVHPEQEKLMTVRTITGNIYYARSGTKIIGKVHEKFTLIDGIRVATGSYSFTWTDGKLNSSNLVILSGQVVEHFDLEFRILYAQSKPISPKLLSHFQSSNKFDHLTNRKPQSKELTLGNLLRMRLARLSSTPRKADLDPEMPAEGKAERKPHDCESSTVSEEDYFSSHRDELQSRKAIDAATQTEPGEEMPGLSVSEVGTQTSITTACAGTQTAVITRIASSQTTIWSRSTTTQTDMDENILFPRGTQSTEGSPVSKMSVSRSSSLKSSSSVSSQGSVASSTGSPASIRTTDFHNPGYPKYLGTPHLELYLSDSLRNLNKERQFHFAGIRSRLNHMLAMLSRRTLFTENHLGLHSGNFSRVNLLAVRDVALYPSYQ
UniProt Q8NEZ5: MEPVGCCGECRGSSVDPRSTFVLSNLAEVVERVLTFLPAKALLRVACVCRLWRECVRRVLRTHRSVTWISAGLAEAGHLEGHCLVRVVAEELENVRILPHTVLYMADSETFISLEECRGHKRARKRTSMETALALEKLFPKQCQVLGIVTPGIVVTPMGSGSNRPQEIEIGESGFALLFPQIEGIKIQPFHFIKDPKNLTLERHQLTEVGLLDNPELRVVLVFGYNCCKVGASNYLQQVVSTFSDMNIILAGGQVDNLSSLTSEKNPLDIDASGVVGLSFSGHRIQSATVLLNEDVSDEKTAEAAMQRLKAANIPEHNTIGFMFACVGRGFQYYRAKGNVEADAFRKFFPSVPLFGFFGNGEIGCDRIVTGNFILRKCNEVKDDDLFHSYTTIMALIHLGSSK
UniProt Q9NXK8: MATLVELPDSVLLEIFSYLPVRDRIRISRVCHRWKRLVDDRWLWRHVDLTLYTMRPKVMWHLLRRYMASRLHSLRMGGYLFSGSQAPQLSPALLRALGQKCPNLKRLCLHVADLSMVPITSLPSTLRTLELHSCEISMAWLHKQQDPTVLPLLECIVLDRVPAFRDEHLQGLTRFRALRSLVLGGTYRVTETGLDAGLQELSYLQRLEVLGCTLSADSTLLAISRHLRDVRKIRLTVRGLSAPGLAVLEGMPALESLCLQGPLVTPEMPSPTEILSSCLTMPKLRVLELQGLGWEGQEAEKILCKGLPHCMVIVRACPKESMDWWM
UniProt Q9Y285: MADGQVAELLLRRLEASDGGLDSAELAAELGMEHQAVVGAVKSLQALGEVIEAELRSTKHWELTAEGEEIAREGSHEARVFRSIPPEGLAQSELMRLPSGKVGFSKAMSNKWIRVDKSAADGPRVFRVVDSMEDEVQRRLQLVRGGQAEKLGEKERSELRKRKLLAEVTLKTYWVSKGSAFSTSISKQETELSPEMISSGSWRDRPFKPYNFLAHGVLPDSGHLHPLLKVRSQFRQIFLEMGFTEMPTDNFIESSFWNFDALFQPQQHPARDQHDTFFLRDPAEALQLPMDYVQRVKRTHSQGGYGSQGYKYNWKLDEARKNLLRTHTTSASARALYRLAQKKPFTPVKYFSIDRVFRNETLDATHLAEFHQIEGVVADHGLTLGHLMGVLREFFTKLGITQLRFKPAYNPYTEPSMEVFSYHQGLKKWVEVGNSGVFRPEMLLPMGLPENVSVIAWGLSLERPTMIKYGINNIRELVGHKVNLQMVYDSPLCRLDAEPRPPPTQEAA
UniProt Q9Y3D6: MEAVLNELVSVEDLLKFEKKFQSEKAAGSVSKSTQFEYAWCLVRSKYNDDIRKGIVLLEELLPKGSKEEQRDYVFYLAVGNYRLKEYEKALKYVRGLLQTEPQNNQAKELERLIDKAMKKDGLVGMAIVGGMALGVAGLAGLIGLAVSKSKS
UniProt Q9NYY8: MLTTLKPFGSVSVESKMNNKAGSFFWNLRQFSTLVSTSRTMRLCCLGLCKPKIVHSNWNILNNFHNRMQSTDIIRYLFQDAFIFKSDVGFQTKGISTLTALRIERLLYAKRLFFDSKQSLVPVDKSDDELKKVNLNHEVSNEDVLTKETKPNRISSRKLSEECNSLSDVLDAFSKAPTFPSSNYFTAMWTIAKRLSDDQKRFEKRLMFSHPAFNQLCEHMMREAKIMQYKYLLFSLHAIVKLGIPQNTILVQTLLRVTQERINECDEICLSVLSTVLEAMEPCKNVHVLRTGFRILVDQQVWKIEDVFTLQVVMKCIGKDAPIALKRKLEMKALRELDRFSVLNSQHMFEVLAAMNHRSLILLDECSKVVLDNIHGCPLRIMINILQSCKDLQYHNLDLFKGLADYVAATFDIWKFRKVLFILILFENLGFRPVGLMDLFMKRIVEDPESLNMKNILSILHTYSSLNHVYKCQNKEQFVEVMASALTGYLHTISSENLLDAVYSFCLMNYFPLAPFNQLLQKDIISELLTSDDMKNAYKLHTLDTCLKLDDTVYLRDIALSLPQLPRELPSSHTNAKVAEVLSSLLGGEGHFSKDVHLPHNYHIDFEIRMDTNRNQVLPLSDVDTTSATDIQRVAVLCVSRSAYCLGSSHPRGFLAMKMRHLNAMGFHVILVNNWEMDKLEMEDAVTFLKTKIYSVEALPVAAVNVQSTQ
UniProt O75955: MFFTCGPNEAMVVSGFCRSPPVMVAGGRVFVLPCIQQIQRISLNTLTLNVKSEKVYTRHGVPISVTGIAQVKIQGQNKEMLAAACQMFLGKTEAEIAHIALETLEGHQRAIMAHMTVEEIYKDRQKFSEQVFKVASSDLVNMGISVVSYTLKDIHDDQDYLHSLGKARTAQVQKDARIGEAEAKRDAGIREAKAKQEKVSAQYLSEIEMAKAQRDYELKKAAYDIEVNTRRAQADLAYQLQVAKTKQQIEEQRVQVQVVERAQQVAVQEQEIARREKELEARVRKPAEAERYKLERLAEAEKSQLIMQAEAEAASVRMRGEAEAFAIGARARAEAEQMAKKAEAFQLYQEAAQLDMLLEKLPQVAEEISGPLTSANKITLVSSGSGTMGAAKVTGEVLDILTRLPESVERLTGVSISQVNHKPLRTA
UniProt Q6UN15: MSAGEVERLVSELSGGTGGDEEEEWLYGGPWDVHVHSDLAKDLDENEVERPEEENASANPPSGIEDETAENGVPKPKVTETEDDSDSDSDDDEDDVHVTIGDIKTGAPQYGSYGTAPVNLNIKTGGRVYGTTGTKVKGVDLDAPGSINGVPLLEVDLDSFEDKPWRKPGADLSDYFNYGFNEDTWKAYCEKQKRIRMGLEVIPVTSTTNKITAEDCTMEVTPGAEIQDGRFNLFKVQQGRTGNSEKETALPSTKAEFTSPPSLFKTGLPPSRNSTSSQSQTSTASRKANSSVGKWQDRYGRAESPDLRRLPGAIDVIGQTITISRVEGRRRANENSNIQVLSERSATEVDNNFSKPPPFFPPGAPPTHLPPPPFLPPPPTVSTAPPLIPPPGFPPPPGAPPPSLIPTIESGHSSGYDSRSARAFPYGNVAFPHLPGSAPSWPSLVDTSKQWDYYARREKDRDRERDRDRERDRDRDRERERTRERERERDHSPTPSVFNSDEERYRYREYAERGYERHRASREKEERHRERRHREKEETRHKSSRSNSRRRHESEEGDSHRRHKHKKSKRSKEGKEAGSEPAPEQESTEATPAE
UniProt P23142: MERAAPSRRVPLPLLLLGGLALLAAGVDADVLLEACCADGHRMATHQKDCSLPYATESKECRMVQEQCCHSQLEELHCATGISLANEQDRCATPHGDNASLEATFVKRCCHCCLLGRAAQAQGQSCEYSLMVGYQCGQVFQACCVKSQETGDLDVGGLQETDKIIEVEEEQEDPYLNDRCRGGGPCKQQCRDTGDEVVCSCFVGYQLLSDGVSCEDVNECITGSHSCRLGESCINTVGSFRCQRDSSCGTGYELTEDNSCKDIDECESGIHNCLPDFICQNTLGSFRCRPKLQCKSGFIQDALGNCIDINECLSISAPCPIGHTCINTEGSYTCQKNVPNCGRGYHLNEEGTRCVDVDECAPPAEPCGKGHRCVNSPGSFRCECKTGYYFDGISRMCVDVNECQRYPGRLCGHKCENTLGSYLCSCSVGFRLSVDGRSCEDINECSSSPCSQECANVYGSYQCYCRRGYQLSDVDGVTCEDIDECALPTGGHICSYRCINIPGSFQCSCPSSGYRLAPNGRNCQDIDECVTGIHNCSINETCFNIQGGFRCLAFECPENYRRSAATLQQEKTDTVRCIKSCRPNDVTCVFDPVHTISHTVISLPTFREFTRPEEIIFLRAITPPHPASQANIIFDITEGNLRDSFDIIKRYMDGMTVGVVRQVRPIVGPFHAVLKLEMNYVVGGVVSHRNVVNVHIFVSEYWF
UniProt Q9UK99: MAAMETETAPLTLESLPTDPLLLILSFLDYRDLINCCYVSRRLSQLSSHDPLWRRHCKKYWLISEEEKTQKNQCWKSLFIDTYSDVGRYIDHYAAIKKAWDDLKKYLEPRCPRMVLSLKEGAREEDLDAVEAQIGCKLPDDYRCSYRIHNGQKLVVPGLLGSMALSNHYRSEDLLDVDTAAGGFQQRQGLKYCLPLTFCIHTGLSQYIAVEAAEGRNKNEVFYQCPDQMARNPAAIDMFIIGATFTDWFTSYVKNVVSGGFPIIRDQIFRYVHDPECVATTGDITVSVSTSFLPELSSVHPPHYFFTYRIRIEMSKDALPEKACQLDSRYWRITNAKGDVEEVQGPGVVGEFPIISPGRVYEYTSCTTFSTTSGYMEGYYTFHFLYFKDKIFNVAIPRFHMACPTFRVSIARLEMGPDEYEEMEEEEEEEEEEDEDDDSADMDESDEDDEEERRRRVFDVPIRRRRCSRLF
UniProt Q9UKT5: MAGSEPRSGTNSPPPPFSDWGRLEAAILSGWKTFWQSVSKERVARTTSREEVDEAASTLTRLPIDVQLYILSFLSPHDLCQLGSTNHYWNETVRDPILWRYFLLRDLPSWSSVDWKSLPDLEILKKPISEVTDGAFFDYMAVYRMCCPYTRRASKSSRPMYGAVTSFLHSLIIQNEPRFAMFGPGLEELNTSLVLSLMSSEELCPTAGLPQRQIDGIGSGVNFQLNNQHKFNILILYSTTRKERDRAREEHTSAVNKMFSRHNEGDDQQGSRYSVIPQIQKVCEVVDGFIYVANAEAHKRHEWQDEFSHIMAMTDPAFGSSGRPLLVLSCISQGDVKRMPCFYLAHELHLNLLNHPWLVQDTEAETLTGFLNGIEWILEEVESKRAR
UniProt Q9UKT4: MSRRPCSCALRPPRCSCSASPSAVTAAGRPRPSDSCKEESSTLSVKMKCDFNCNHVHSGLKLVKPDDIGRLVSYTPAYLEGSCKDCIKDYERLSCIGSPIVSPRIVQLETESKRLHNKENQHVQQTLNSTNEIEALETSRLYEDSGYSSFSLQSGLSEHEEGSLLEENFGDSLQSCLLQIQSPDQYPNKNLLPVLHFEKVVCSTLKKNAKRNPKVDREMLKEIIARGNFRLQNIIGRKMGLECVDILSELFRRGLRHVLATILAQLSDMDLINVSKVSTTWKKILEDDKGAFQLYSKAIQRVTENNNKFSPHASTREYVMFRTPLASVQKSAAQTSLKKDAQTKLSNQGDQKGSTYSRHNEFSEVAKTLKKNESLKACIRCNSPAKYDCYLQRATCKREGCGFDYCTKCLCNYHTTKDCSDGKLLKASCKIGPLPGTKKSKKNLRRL
UniProt Q96IG2: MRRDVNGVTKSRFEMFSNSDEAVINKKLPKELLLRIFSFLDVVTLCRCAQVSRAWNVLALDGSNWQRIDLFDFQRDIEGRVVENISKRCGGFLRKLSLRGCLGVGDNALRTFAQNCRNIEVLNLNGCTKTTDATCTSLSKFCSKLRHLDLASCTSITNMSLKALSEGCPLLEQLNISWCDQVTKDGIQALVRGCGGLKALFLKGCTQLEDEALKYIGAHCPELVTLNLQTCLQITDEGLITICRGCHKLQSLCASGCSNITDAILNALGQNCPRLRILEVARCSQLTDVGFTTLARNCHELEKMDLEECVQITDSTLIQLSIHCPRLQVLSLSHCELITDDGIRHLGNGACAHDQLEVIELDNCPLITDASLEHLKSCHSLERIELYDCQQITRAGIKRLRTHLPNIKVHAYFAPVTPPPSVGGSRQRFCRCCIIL
UniProt P39748, whole entry, looked up: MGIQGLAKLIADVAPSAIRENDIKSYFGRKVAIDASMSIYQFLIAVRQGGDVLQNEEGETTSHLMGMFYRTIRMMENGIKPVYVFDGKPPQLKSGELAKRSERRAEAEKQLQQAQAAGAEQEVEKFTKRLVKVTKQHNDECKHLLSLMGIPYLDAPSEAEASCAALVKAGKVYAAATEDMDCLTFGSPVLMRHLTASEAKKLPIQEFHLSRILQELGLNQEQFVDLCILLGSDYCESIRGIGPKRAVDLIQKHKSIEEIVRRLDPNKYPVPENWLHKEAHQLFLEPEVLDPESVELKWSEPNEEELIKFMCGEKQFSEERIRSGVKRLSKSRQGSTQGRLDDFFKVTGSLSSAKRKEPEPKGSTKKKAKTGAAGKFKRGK

Assays:
Test in all cases: log2 fold change, soluble protein after heating vs DMSO (PISA); higher = thermal stabilisation; K562 cells, 10 uM, 30 min; active = over 0.2 and 3.5 SD of the protein, either way, in both replicates (recomputed)
[1] = compound: COC1=CC=C(C=C1)CN2C=CC3=C2C=C(C=C3)C(=O)NO
Summary of the method: (§1)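 Values are thermal stability changes relative to control samples and are taken from duplicates. They are stated as log2 fold changes. Before quantification by TMTpro 16plex LC-MS/MS with equalised channel sums, K562 cells at 2×10^6 cells/mL were treated with 10 μM compound for 30 min, heated in aliquots for 3 min across 48°C-58°C, pooled, extracted in PBS with 0.5% NP-40 at 4°C, and centrifuged at 21,000xg for 90 min to give the soluble supernatant.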

filanesib = compound: CON(C)C(=O)N1N=C(c2cc(F)ccc2F)S[C@@]1(CCCN)c1ccccc1 [filanesib]
Summary of the method: as §1

zotarolimus = compound: CO[C@H]1C[C@@H]2CC[C@@H](C)[C@@](O)(O2)C(=O)C(=O)N2CCCC[C@H]2C(=O)O[C@H]([C@H](C)C[C@@H]2CC[C@H](n3cnnn3)[C@H](OC)C2)CC(=O)[C@H](C)/C=C(\C)[C@@H](O)[C@@H](OC)C(=O)[C@H](C)C[C@H](C)/C=C/C=C/C=C/1C [zotarolimus]
Summary of the method: as §1

idasanutlin = compound: COc1cc(C(=O)O)ccc1NC(=O)[C@@H]1N[C@@H](CC(C)(C)C)[C@](C#N)(c2ccc(Cl)cc2F)[C@H]1c1cccc(Cl)c1F [idasanutlin]
Summary of the method: as §1

alisertib = compound: COc1cc(Nc2ncc3c(n2)-c2ccc(Cl)cc2C(c2c(F)cccc2OC)=NC3)ccc1C(=O)O [alisertib]
Summary of the method: as §1

[2] = compound: COc1cc2nc(-c3cc(F)ccc3O)nc(N[C@@H]3CNC[C@H]3C(C)(C)O)c2cc1OC
Summary of the method: as §1

gefitinib = compound: COc1cc2ncnc(Nc3ccc(F)c(Cl)c3)c2cc1OCCCN1CCOCC1 [gefitinib]
Summary of the method: as §1

[3] = compound: COc1cccc2cc(-c3nc([C@H]4CC[C@H](C(=O)O)CC4)n4ncnc(N)c34)[nH]c12
Summary of the method: as §1

lapatinib = compound: CS(=O)(=O)CCNCc1ccc(-c2ccc3ncnc(Nc4ccc(OCc5cccc(F)c5)c(Cl)c4)c3c2)o1 [lapatinib]
Summary of the method: as §1

pictilisib = compound: CS(=O)(=O)N1CCN(Cc2cc3nc(-c4cccc5[nH]ncc45)nc(N4CCOCC4)c3s2)CC1 [pictilisib]
Summary of the method: as §1

Measured: log2 fold change

FAM83D (UniProt Q9H4H8)
inactive: [1] -0.009 | filanesib 0.062 | zotarolimus 0.051 | idasanutlin -0.109 | alisertib -0.135 | [2] 0.018 | gefitinib 0.05 | [3] -0.034 | lapatinib 0.021 | pictilisib -0.136

FLOT2 (UniProt Q14254)
inactive: [1] -0.106 | filanesib 0.097 | zotarolimus -0.017 | idasanutlin 0.069 | alisertib -0.222 | [2] -0.024 | gefitinib 0.067 | [3] -0.359 | lapatinib 0.033 | pictilisib -0.022

FKBP7 (UniProt Q9Y680)
inactive: [1] -0.152 | filanesib -0.036 | zotarolimus -0.029 | idasanutlin 0.047 | alisertib -0.063 | [2] 0.047 | gefitinib 0.086 | [3] 0.003 | lapatinib -0.065 | pictilisib -0.007

FBXW9 (UniProt Q5XUX1)
inactive: [1] -0.045 | filanesib -0.072 | zotarolimus 0.021 | idasanutlin -0.031 | alisertib 0.05 | [2] -0.015 | gefitinib 0.016 | [3] 0.038 | lapatinib -0.009

FBXO22 (UniProt Q8NEZ5)
inactive: [1] 0.041 | filanesib -0.051 | zotarolimus 0.011 | idasanutlin -0.059 | alisertib -0.034 | [2] 0.022 | gefitinib -0.013 | [3] 0 | lapatinib 0.046 | pictilisib -0.062

FBXL12 (UniProt Q9NXK8)
inactive: [1] 0.175 | filanesib -0.037 | zotarolimus 0.041 | idasanutlin -0.062 | alisertib -0.001 | [2] -0.004 | gefitinib 0.012 | [3] -0.007 | lapatinib -0.046 | pictilisib -0.006

FARSA (UniProt Q9Y285)
inactive: [1] -0.007 | filanesib 0.001 | zotarolimus 0.001 | idasanutlin -0.072 | alisertib -0.079 | [2] 0.052 | gefitinib 0.009 | [3] 0.006 | lapatinib 0 | pictilisib 0.043

FIS1 (UniProt Q9Y3D6)
inactive: [1] -0.016 | filanesib -0.008 | zotarolimus 0.153 | idasanutlin -0.047 | alisertib -0.034 | [2] 0.061 | gefitinib -0.025 | [3] 0.069 | lapatinib 0.008 | pictilisib 0.071

FASTKD2 (UniProt Q9NYY8)
inactive: [1] -0.062 | filanesib -0.099 | zotarolimus 0.01 | idasanutlin -0.089 | alisertib -0.04 | [2] -0.023 | gefitinib -0.008 | [3] 0.052 | lapatinib -0.011 | pictilisib 0.022

FGFR1OP (UniProt O95684)
inactive: [1] 0.057 | filanesib -0.032 | zotarolimus -0.03 | idasanutlin -0.034 | alisertib -0.039 | [2] -0.03 | gefitinib 0.012 | [3] -0.031 | lapatinib 0.02 | pictilisib -0.001

FARSB (UniProt Q9NSD9)
inactive: [1] -0.027 | filanesib -0.039 | zotarolimus 0.028 | idasanutlin -0.044 | alisertib -0.055 | [2] 0.009 | gefitinib 0.024 | [3] -0.02 | lapatinib -0.006 | pictilisib 0.035

FN3KRP (UniProt Q9HA64)
inactive: [1] 0.019 | filanesib 0.002 | zotarolimus -0.022 | idasanutlin 0 | alisertib -0.085 | [2] 0.027 | gefitinib -0.036 | [3] 0.036 | lapatinib -0.012 | pictilisib 0.011

FBXO42 (UniProt Q6P3S6)
inactive: [1] -0.037 | filanesib 0.011 | zotarolimus 0.025 | idasanutlin 0.009 | alisertib 0.047 | [2] -0.054 | gefitinib 0.036 | [3] 0.07 | lapatinib 0.063 | pictilisib -0.088

FLOT1 (UniProt O75955)
inactive: [1] -0.09 | filanesib 0.104 | zotarolimus 0.053 | idasanutlin 0.095 | alisertib -0.226 | [2] -0.113 | gefitinib 0.014 | [3] -0.311 | lapatinib 0.078 | pictilisib -0.079

FIP1L1 (UniProt Q6UN15)
inactive: [1] -0.098 | filanesib 0.113 | zotarolimus -0.05 | idasanutlin 0.094 | alisertib -0.097 | [2] -0.069 | gefitinib -0.016 | [3] 0.104 | lapatinib 0.051 | pictilisib -0.052

FBLN1 (UniProt P23142)
inactive: [1] -0.014 | filanesib 0.004 | zotarolimus -0.138 | idasanutlin 0.142 | alisertib -0.143 | [2] -0.105 | gefitinib -0.179 | [3] 0.383 | lapatinib -0.031 | pictilisib -0.136

FBXO3 (UniProt Q9UK99)
inactive: [1] 0.011 | filanesib -0.053 | zotarolimus -0.022 | idasanutlin 0.032 | alisertib -0.071 | [2] -0.013 | gefitinib 0.011 | [3] 0.025 | lapatinib 0.028 | pictilisib -0.023

FBLL1 (UniProt A6NHQ2)
inactive: [1] -0.125 | filanesib 0.539 | zotarolimus 0.088 | idasanutlin 0.409 | alisertib -0.041 | [2] -0.046 | gefitinib 0.199 | [3] 0.051 | lapatinib 0.124 | pictilisib -0.161

FN1 isoform 1 (UniProt P02751)
inactive: [1] 0.035 | filanesib 0.004 | zotarolimus -0.325 | idasanutlin 0.087 | alisertib 0.085 | [2] -0.022 | gefitinib -0.079 | [3] 0.203 | lapatinib -0.018 | pictilisib -0.119

FBXO4 (UniProt Q9UKT5)
inactive: [1] -0.019 | filanesib 0.063 | zotarolimus -0.007 | idasanutlin -0.034 | alisertib -0.112 | [2] -0.032 | gefitinib -0.008 | [3] 0.05 | lapatinib 0.03 | pictilisib 0.026

FGF2 (UniProt P09038)
inactive: [1] -0.101 | filanesib -0.005 | zotarolimus -0.019 | idasanutlin 0.015 | alisertib 0.022 | [2] -0.021 | gefitinib -0.004 | [3] 0.051 | lapatinib 0 | pictilisib -0.046

FKBP2 (UniProt P26885)
inactive: [1] -0.006 | filanesib -0.027 | zotarolimus 0.234 | idasanutlin 0.025 | alisertib 0.004 | [2] 0.029 | gefitinib 0.001 | [3] -0.014 | lapatinib -0.051 | pictilisib 0.062

Quoted from the listing (two entries):
FBLL1 (UniProt A6NHQ2)
inactive: [1] -0.125 | filanesib 0.539 | zotarolimus 0.088 | idasanutlin 0.409 | alisertib -0.041 | [2] -0.046 | gefitinib 0.199 | [3] 0.051 | lapatinib 0.124 | pictilisib -0.161

FN1 isoform 1 (UniProt P02751)
inactive: [1] 0.035 | filanesib 0.004 | zotarolimus -0.325 | idasanutlin 0.087 | alisertib 0.085 | [2] -0.022 | gefitinib -0.079 | [3] 0.203 | lapatinib -0.018 | pictilisib -0.119

(cont.)

FBXO5 (UniProt Q9UKT4)
inactive: [1] 0.034 | filanesib 0.023 | zotarolimus 0.005 | idasanutlin 0.024 | alisertib -0.04 | [2] 0.008 | gefitinib -0.009 | [3] 0.007 | lapatinib 0.035 | pictilisib -0.082

FEM1B (UniProt Q9UK73)
inactive: [1] -0.096 | filanesib 0.033 | zotarolimus -0.017 | idasanutlin -0.028 | alisertib -0.06 | [2] -0.037 | gefitinib -0.013 | [3] 0.133 | lapatinib 0.001 | pictilisib -0.023

FDX1 (UniProt P10109)
inactive: [1] -0.08 | filanesib -0.132 | zotarolimus 0.021 | idasanutlin 0.006 | alisertib 0.027 | [2] 0.065 | gefitinib -0.01 | [3] -0.054 | lapatinib -0.022 | pictilisib 0.029

FBXL20 (UniProt Q96IG2)
inactive: [1] 0.225 | filanesib -0.017 | zotarolimus 0.095 | idasanutlin -0.085 | alisertib -0.017 | [2] 0.087 | gefitinib 0.097 | [3] -0.047 | lapatinib 0.015 | pictilisib -0.037

FBL (UniProt P22087)
inactive: [1] -0.154 | filanesib 0.664 | zotarolimus 0.034 | idasanutlin 0.441 | alisertib 0.006 | [2] 0.077 | gefitinib 0.059 | [3] -0.069 | lapatinib 0.11 | pictilisib -0.093

FEN1 (UniProt P39748)
inactive: [1] 0.06 | filanesib -0.215 | zotarolimus 0.027 | idasanutlin -0.099 | alisertib 0.019 | [2] 0.039 | gefitinib -0.029 | [3] 0.096 | lapatinib -0.098 | pictilisib -0.005

FNTA (UniProt P49354)
inactive: [1] 0.162 | filanesib 0.069 | zotarolimus 0.019 | idasanutlin -0.062 | alisertib -0.074 | [2] -0.01 | gefitinib 0.056 | [3] 0.044 | lapatinib 0.04 | pictilisib -0.005

FEZ2 isoform 2 (UniProt Q9UHY8)
inactive: [1] 0.166 | filanesib 0.057 | zotarolimus -0.003 | idasanutlin 0.074 | alisertib 0.038 | [2] 0.106 | gefitinib 0.041 | [3] 0.124 | lapatinib -0.219 | pictilisib -0.044
